Patent US20080280862A1, “Methods, compositions, and kits for the treatment of pain” (priority 2007, published 2008)

Test system: acetic acid-induced pain model in mice
Test: Acetic acid pain model, writhes
Type: in vivo, ICR mice
Details: 5 mg/kg ip
Protocol: The acetic acid is a reliable fast model for noxious/visceral pain usually used for screening potential drug candidates for their analgesic activity. The effects of test article combinations on pain generation are assayed using the acetic acid-induced pain model in mice. Adult male ICR mice are administered study drugs intraperitoneally (vehicle, TCA, steroid or TCA/Steroid test article combinations) once daily for 2 days (day −2 and day −1) and 30 minutes prior to the acetic acid injection on day 0 (time=0). […] To elicit a pain response, dilute acetic acid (10 ml/kg of 0.6% solution) is injected intraperitoneally into the abdomen. The animal is placed in an observation chamber, and 5 minutes after acetic acid administration, the number of writhes is counted and recorded over a five minute period by a blinded observer. A writhe is considered as a contraction of the abdominal muscles accompanied by an elongation of the body and extension of the hind limb. Results are expressed as number of writhes.

Structure (SMILES): CN1CC[C@]23c4c5ccc(O)c4O[C@H]2[C@@H](O)C=C[C@H]3[C@H]1C5 [Morphine]
- Mean # of writhes per 5 minutes ± SEM: 1.93 ± 1.53
